Assay results reported in PubChem BioAssay AID504834 (National Center for Advancing Translational Sciences (NCATS), 2011).
About 22,000 (6.9%) of roughly 320,000 compounds were called active. Inconclusive means that the source gave no clear call. Such entries were picked first, then a sample of the others. Calls follow the shape of the dose curve; as a rule, active = well fitted inhibition curve with a large enough effect; inconclusive = small, poorly fitted or top-dose-only effect, or another doubt; inactive = no such curve, though single readings can be large or run the other way. Where the call is inconclusive, the potency comes from a doubtful curve fit.

Test: Primary qHTS for delayed death inhibitors of the malarial parasite plastid, 96 hour incubation
Conditions: P. falciparum luciferase reporter growth; series mostly up to 28.7 µM
Summary of the method: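 Two parasite generations (96 h, 37 C, 5% CO2) of compound exposure in infected erythrocytes (0.05% parasitemia, 2% hematocrit). Luciferase-reporter P. falciparum; decreased luminescence indicates inhibited growth, aimed at apicoplast-acting delayed death.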
Potency is read from the fitted curve at half-maximal effect.

Row | SMILES | Potency
1 | COc1ccc(CC(=O)N(C)Cc2ccc(Cl)cc2)cc1S(=O)(=O)N1CCOCC1 | inconclusive: 18.5 µM [inhibitor, single point]
2 | Oc1cccc(Nc2nc(NCC3CCCO3)c3ccccc3n2)c1 (stereo unspecified) | inactive
3 | CCOc1ccccc1NCc1cc(=O)oc2cc(C)ccc12 | inactive
4 | c1ccc(-c2cn(C[C@H]3CC[C@@H]([C@@H]4CC[C@H](Cn5cc(-c6ccccc6)nn5)O4)O3)nn2)cc1 | inconclusive: 14.7 µM [inhibitor, partial curve, poor fit]
5 | CCCCCN(C(=O)CCC(=O)OCc1cccc(F)c1)c1c(N)n(CCCC)c(=O)[nH]c1=O | inconclusive: 10.4 µM [inhibitor, single point]
6 | O=C(Nc1nc(-c2ccc3c(c2)OCCO3)cs1)C1CCCC1 | inactive
7 | Cc1cc(=O)n2[nH]c(-c3ccc(Cl)cc3)cc2n1 | inconclusive: 4.15 µM [inhibitor, partial curve]
8 | COc1ccc(CCNC(=O)c2cc3c(=O)n(C)c4ccccc4c3n2C)c(OC)c1 | inconclusive: 8.28 µM [inhibitor, partial curve, poor fit]
9 | CCCSc1ccc([C@H]2N[C@@](Cc3ccccc3)(C(=O)OC)[C@H]3C(=O)N(CC)C(=O)[C@@H]23)cc1 | active: 1.04 µM
10 | O=C(NNC(=O)C1CC1c1ccccc1)c1ccccc1F (stereo unspecified) | inconclusive: 6.57 µM [inhibitor, single point]
11 | Cc1ccc(C(=O)CC(=O)c2ccc(C(C)(C)C)cc2)cc1 | inactive
12 | Cc1ccc(C)c(OCC(O)CNC2CCCC2)c1 (stereo unspecified) | inconclusive: 8.28 µM [inhibitor, partial curve]
13 | CCOc1ccccc1C(=O)N[C@H](C(=O)OCc1cc(=O)oc2cc(C)ccc12)C(C)C | inconclusive: 18.5 µM [inhibitor, single point]
14 | CC(=O)c1ccc(NCC(=O)N2CCN(c3ccccc3)CC2)cc1 | inconclusive: 13.1 µM [inhibitor, single point]
15 | COc1ccc(NC(=O)c2cc3ccc4c5ccccc5[nH]c4c3cc2O)cc1 | active: 5.86 µM
16 | CCN(CC)C1=NC=CC(c2ccccc2)=CC1C (stereo unspecified) | inactive
17 | Oc1ccc2ccccc2c1C=NCc1ccccc1 | active: 13.1 µM
18 | Cn1c(SCC(N)=O)nnc1C1CCN(C(=O)NC2CCCCC2)CC1 | inconclusive: 0.928 µM [inhibitor, full curve]
19 | O=C(N/N=C(\c1ccccc1)c1cccnc1)C(O)(c1ccccc1)c1ccccc1 | inconclusive: 13.1 µM [inhibitor, single point]
20 | Cc1ccccc1CN1CCN(CC(=O)NCc2ccco2)C1=O | inconclusive: 4.15 µM [inhibitor, partial curve, poor fit]
21 | CC1CN(S(=O)(=O)c2cccc(C(=O)OCC(=O)NCc3ccccc3)c2)CC(C)O1 (stereo unspecified) | inconclusive: 18.5 µM [inhibitor, single point]
22 | COC(=O)c1c(N2C(=O)[C@H]3[C@@H](C2=O)[C@]2(C(=O)Nc4ccc(C)cc42)N2CCC[C@@H]32)sc(C)c1C | inconclusive: 13.1 µM [inhibitor, partial curve, poor fit]
23 | CC(=O)N/C(=N/c1nc(C)cc(C)n1)Nc1ccc(C)cc1Cl | inactive
24 | Cc1cccc(NC(=O)c2ccc(S(=O)(=O)N3CCOCC3)cc2)n1 | inactive

Row | SMILES | Potency
25 | COc1ccc(/C=N/Nc2nc(C)cc(=O)[nH]2)cc1OC | inconclusive: 18.5 µM [inhibitor, single point]
26 | C=CCNC(=O)c1cccc(NS(=O)(=O)c2ccc(Cl)cc2)c1 | inconclusive: 11.7 µM [inhibitor, single point]
27 | O=C(NNC(=O)c1ccccc1O)c1ccc(Cl)c(S(=O)(=O)N2CCc3ccccc32)c1 | inactive
28 | C[C@H](NC(=O)N1CCn2c1nc1ccccc12)C(=O)NCC1CCCO1 (stereo partly specified) | inconclusive: 18.5 µM [inhibitor, single point]
29 | CC1(C)Cc2c(cnn2-c2cccc(F)c2)C(NC(=O)c2ccc[n+]([O-])c2)C1 (stereo unspecified) | inactive
30 | COc1ccc(C2=NOC(C(=O)NCCCn3ccnc3)C2)cc1 (stereo unspecified) | inconclusive: 16.5 µM [inhibitor, partial curve, poor fit]
31 | COc1ccccc1NS(=O)(=O)c1cc(NC(=O)c2ccc3c(c2)OCCO3)ccc1C | inconclusive: 13.1 µM [inhibitor, single point]
32 | COc1cccc(N2CCN(C(=O)CCc3nnc4ccc(N5CCCC5)nn34)CC2)c1 | inconclusive: 3.7 µM [inhibitor, partial curve, poor fit]
33 | Cc1nc(NC(=O)c2ccc(OCC(C)C)cc2)sc1Cc1ccc2c(c1)OCO2 | inconclusive: 4.65 µM [inhibitor, single point]
34 | CN1CCN(S(=O)(=O)c2cccc(C(=O)Nc3sc4c(c3-c3nc5ccccc5[nH]3)CCCC4)c2)CC1 | active: 3.29 µM
35 | Cc1ccccc1OCC(=O)NS(=O)(=O)c1ccc(Cl)cc1 | active: 5.22 µM
36 | Cc1ccc(-c2noc(CSc3nnc(-c4ccncc4)n3-c3ccc(C)cc3)n2)cc1 | active: 11.7 µM
37 | CC(C)CNC(=O)c1cc(-c2ccc(Br)cc2)on1 | inconclusive: 18.5 µM [inhibitor, single point]
38 | Cc1ccc2nc(-c3ccccc3)cc(C(=O)N3CC(C)OC(C)C3)c2c1 (stereo unspecified) | inconclusive: 18.5 µM [inhibitor, single point]
39 | CC(Sc1nnc(Cc2ccccc2)o1)C(=O)Nc1ccccc1[N+](=O)[O-] (stereo unspecified) | inactive
40 | CC(=O)Nc1ccc(NC(=O)CSc2ccc(-c3sc(C)nc3C)nn2)cc1 | inconclusive: 18.5 µM [inhibitor, single point]
41 | COc1ccc(Nc2cc(C(=O)NCc3cccnc3)c3ccccc3n2)c(OC)c1 | inconclusive: 18.5 µM [inhibitor, single point]
42 | O=C1/C(=C/c2cccs2)SC(=S)N1CCC(=O)N1CCCCC1CCO (stereo unspecified) | active: 11.7 µM
43 | COc1ccc(/C(O)=C2/C(=O)C(=O)N(CCN(C)C)C2c2ccccn2)cc1OC (stereo unspecified) | inconclusive: 18.5 µM [inhibitor, single point]
44 | COCCNC(=O)C1CCC(CNS(=O)(=O)c2ccc3c(c2)CC(C)N3C(=O)C2CC2)CC1 (stereo unspecified) | active: 11.7 µM
45 | COc1cccc(/C(N)=N/OC(=O)Cc2ccccc2[N+](=O)[O-])c1 | inconclusive: 3.29 µM [inhibitor, partial curve, poor fit]
46 | Cc1cccc(OCCCC(=O)Nc2nccs2)c1C | inconclusive: 3.7 µM [inhibitor, single point]
47 | COc1cc(/C=N/N2CCN(Cc3ccc(Cl)cc3)CC2)cc(Br)c1O | inactive
48 | CCn1c(=O)c(=O)n(CC)c2cc(S(=O)(=O)Nc3ccc(C)cc3)ccc21 | inconclusive: 7.38 µM [inhibitor, partial curve, poor fit]

Molecules shown so far that have a thiophene ring, fused or not (3):
Row | SMILES | Potency
22 | COC(=O)c1c(N2C(=O)[C@H]3[C@@H](C2=O)[C@]2(C(=O)Nc4ccc(C)cc42)N2CCC[C@@H]32)sc(C)c1C | inconclusive: 13.1 µM [inhibitor, partial curve, poor fit]
34 | CN1CCN(S(=O)(=O)c2cccc(C(=O)Nc3sc4c(c3-c3nc5ccccc5[nH]3)CCCC4)c2)CC1 | active: 3.29 µM
42 | O=C1/C(=C/c2cccs2)SC(=S)N1CCC(=O)N1CCCCC1CCO (stereo unspecified) | active: 11.7 µM

Following part.

Row | SMILES | Potency
49 | CC1(C)OC(=O)N(c2ccccn2)C1(C)O (stereo unspecified) | inactive
50 | C=CCn1cnc2c(c1=O)c1nc3ccccc3nc1n2Cc1ccccc1 | inconclusive: 10.4 µM [inhibitor, single point]
51 | Cc1c(C(=O)OCCOc2ccc(Br)cc2)sc(=S)n1C | inactive
52 | Cc1ccc(S(=O)(=O)N(C)C)cc1NC(=O)c1cc(=O)[nH]c2ccccc12 | inconclusive: 18.5 µM [inhibitor, single point]
53 | O=C(CN1CCN(S(=O)(=O)c2ccc(Cl)cc2)CC1)N1CCCC1 | inactive
54 | O=C(Cn1cccc1C(=O)c1ccccc1)NCc1ccco1 | inconclusive: 11.7 µM [inhibitor, partial curve, poor fit]
55 | Nc1ncnc(Nc2ccc(S(N)(=O)=O)cc2)n1 | inactive
56 | Cc1ccc(S(=O)(=O)Nc2ccc(O)c3cccnc23)cc1 | active: 9.28 µM
57 | CCOC(=O)Cc1csc(SCC(=O)NC2CCCCC2)n1 | inconclusive: 0.0928 µM [inhibitor, full curve, poor fit]
58 | O=C(C1=C[C@@H](C2CC2)C[C@@H](OCCCCO)O1)N1CCN(Cc2ccc3c(c2)OCO3)CC1 | inconclusive: 13.1 µM [inhibitor, single point]
59 | COc1ccc(CCNS(=O)(=O)c2ccc3c(c2)NC(=O)CO3)cc1OC | inconclusive: 16.5 µM [inhibitor, single point]
60 | O=c1[nH]c2cc3c(cc2cc1C(c1nnnn1C1CCCC1)N1CCSCC1)OCCO3 (stereo unspecified) | inactive
61 | Cc1cc(C)nc(NCCC(=O)O)n1 | inactive
62 | COCCNC(=O)c1cccc(OC2CCN(Cc3ccc(F)c(OC)c3)CC2)c1 | inconclusive: 10.4 µM [inhibitor, single point]
63 | OCCC1CN(CC(c2ccccc2)c2ccccc2)CCN1C1CCCC1 (stereo unspecified) | inconclusive: 4.15 µM [inhibitor, single point]
64 | Cc1ccc(S(=O)(=O)Nc2c(C)n(C)n(-c3ccccc3)c2=O)cc1C(=O)NCc1ccccn1 | inconclusive: 18.5 µM [inhibitor, single point]
65 | CCN1C(=O)/C(=C\c2nc3ccccc3c(=O)n2-c2ccccc2)c2ccccc21 | inactive
66 | CC1CCN(c2nc(Cl)nc(Nc3ccc([N+](=O)[O-])cc3)n2)CC1 | inactive
67 | CCCN(C(=O)COc1ccc(Cl)cc1Cl)c1c(N)n(Cc2ccccc2)c(=O)[nH]c1=O | inactive
68 | Nc1c(C(=O)c2ccccc2)sc2nsc(SCCN3CCOCC3)c12 | inactive
69 | O=C(NC1CC(=O)N(c2cccc(F)c2)C1)C(=O)c1c[nH]c2ccccc12 (stereo unspecified) | inactive
70 | C#CCSc1nnnn1-c1cccc(Cl)c1 | inactive
71 | CN1/C(=C\C(=O)c2cccnc2)Sc2ccccc21 | inconclusive: 1.31 µM [inhibitor, full curve]
